Values quoted from earlier work, collected in patent US20040092428A1, “Oral pharmaceuticals formulation comprising paclitaxel, derivatives and methods of administration thereof” (priority 2001, published 2004).

Settings: cited from earlier work

CC(=O)O[C@H]1C(=O)[C@@]2(C)[C@H]([C@H](OC(=O)c3ccccc3)[C@]3(O)C[C@H](OC(=O)[C@H](O)[C@@H](NC(=O)c4ccccc4)c4ccccc4)C(C)=C1C3(C)C)[C@]1(OC(C)=O)CO[C@@H]1C[C@@H]2O [Paclitaxel]
Solubility in water: practically insoluble
